From the supplement of paper PMC6078165
± gives the standard deviation of the averaged measurements. Values are relative to the signal before dosing, not to a vehicle control; the signal also falls without drug.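 Labels refer to human fibroblasts, largely primary: uterine (C12385, HUF), lung (H6013), bone (Hs27A), adrenal (HADF), skin (WS1), plus mammary HMF and breast cancer-associated Hs343T. Cancer lines are basal-like or mesenchymal-like triple-negative breast cancer. The paper counts as hits responses shifting over 3x the replicate standard deviation. The tissue of the other fibroblasts is not given here.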

Tested on: MDAMB436
Assay: relative JC-1 red fluorescence (viability) vs pre-drug, coculture with fibroblast (fraction); higher = more viable cancer cells
Experimental: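 JC-1 labelled TNBC cells cocultured 1:1 (1,500 cells each) with CellTrace Violet stained primary or stromal fibroblasts in 384-well plates in FluoroBrite medium, treated with one of 42 anticancer drugs at 0.1, 1, 10 or 100 uM. JC-1 red fluorescence (mitochondrial integrity in cancer cells only) was read by plate reader every 8 h for 72 h. Values are normalised to each well's pre-drug value. The stock of one drug was tenfold lower, so its dose labels may be too high.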

Nc1ncn([C@@H]2O[C@H](CO)[C@@H](O)[C@H]2O)c(=O)n1 [Azacitidine]
relative JC-1 red fluorescence
Settings | 8 h | 16 h | 24 h | 32 h | 40 h | 48 h | 56 h | 64 h | 72 h
10 µM, coculture fibroblast: C12385 | 0.7548 ± 0.0027 | 0.735 ± 0.0074 | 0.738 ± 0.03 | 0.671 ± 0.021 | 0.639 ± 0.02 | 0.62 ± 0.025 | 0.612 ± 0.03 | 0.598 ± 0.037 | 0.603 ± 0.041
10 µM, coculture fibroblast: H6013 | 0.854 ± 0.045 | 0.837 ± 0.024 | 0.812 ± 0.014 | 0.791 ± 0.022 | 0.755 ± 0.033 | 0.755 ± 0.043 | 0.706 ± 0.06 | 0.686 ± 0.087 | 0.643 ± 0.096
10 µM, coculture fibroblast: H6019 | 0.749 ± 0.017 | 0.732 ± 0.021 | 0.718 ± 0.025 | 0.6483 ± 0.0063 | 0.6341 ± 0.0035 | 0.625 ± 0.0083 | 0.609 ± 0.019 | 0.593 ± 0.02 | 0.582 ± 0.022
10 µM, coculture fibroblast: H6076 | 0.705 ± 0.074 | 0.644 ± 0.077 | 0.635 ± 0.084 | 0.589 ± 0.071 | 0.578 ± 0.076 | 0.557 ± 0.071 | 0.576 ± 0.078 | 0.577 ± 0.072 | 0.583 ± 0.066
10 µM, coculture fibroblast: H6231 | 0.658 ± 0.036 | 0.562 ± 0.029 | 0.617 ± 0.027 | 0.548 ± 0.03 | 0.554 ± 0.035 | 0.53 ± 0.034 | 0.532 ± 0.027 | 0.521 ± 0.03 | 0.511 ± 0.027
10 µM, coculture fibroblast: HADF | 0.796 ± 0.017 | 0.772 ± 0.011 | 0.746 ± 0.011 | 0.7235 ± 0.0032 | 0.7136 ± 0.0042 | 0.736 ± 0.02 | 0.682 ± 0.016 | 0.67 ± 0.028 | 0.633 ± 0.022
10 µM, coculture fibroblast: HCFa | 0.767 ± 0.023 | 0.737 ± 0.039 | 0.725 ± 0.042 | 0.703 ± 0.051 | 0.692 ± 0.062 | 0.721 ± 0.058 | 0.674 ± 0.064 | 0.669 ± 0.065 | 0.623 ± 0.057
10 µM, coculture fibroblast: HCPF | 0.682 ± 0.043 | 0.649 ± 0.036 | 0.658 ± 0.048 | 0.592 ± 0.059 | 0.589 ± 0.069 | 0.555 ± 0.066 | 0.541 ± 0.067 | 0.535 ± 0.07 | 0.524 ± 0.067
10 µM, coculture fibroblast: HHSteC | 0.796 ± 0.014 | 0.785 ± 0.017 | 0.77 ± 0.019 | 0.746 ± 0.02 | 0.753 ± 0.027 | 0.773 ± 0.028 | 0.726 ± 0.017 | 0.715 ± 0.016 | 0.667 ± 0.011
10 µM, coculture fibroblast: HMF | 0.67 ± 0.048 | 0.626 ± 0.048 | 0.626 ± 0.026 | 0.581 ± 0.015 | 0.5611 ± 0.0014 | 0.531 ± 0.011 | 0.537 ± 0.013 | 0.513 ± 0.011 | 0.51 ± 0.024
10 µM, coculture fibroblast: HPFa | 0.861 ± 0.028 | 0.805 ± 0.026 | 0.783 ± 0.016 | 0.75 ± 0.013 | 0.7468 ± 0.007 | 0.7519 ± 0.0032 | 0.701 ± 0.0044 | 0.6861 ± 0.0026 | 0.6333 ± 0.0047
10 µM, coculture fibroblast: HUF | 0.7959 ± 0.0075 | 0.723 ± 0.013 | 0.705 ± 0.013 | 0.639 ± 0.014 | 0.596 ± 0.013 | 0.564 ± 0.0065 | 0.548 ± 0.0078 | 0.5332 ± 0.0044 | 0.5238 ± 0.0047
10 µM, coculture fibroblast: Hs5 | 0.7294 ± 0.004 | 0.695 ± 0.011 | 0.701 ± 0.0053 | 0.637 ± 0.0062 | 0.6406 ± 0.0037 | 0.6017 ± 0.0056 | 0.6125 ± 0.0013 | 0.5841 ± 0.004 | 0.582 ± 0.015
10 µM, coculture fibroblast: Hs27A | 0.7744 ± 0.0059 | 0.735 ± 0.034 | 0.724 ± 0.054 | 0.716 ± 0.055 | 0.697 ± 0.063 | 0.764 ± 0.082 | 0.672 ± 0.074 | 0.676 ± 0.074 | 0.601 ± 0.064
10 µM, coculture fibroblast: Hs343T | 0.727 ± 0.05 | 0.689 ± 0.07 | 0.678 ± 0.084 | 0.641 ± 0.097 | 0.634 ± 0.11 | 0.59 ± 0.098 | 0.584 ± 0.084 | 0.576 ± 0.082 | 0.562 ± 0.07
10 µM, coculture fibroblast: WS1 | 0.764 ± 0.0077 | 0.739 ± 0.0086 | 0.742 ± 0.0045 | 0.676 ± 0.01 | 0.657 ± 0.012 | 0.642 ± 0.017 | 0.641 ± 0.019 | 0.634 ± 0.018 | 0.639 ± 0.014
100 µM, coculture fibroblast: C12385 | 0.807 ± 0.024 | 0.701 ± 0.038 | 0.694 ± 0.045 | 0.638 ± 0.061 | 0.602 ± 0.074 | 0.583 ± 0.072 | 0.57 ± 0.078 | 0.555 ± 0.083 | 0.553 ± 0.085
100 µM, coculture fibroblast: H6013 | 0.801 ± 0.049 | 0.799 ± 0.038 | 0.784 ± 0.034 | 0.777 ± 0.033 | 0.766 ± 0.024 | 0.786 ± 0.022 | 0.758 ± 0.013 | 0.745 ± 0.017 | 0.7172 ± 0.0029
100 µM, coculture fibroblast: H6019 | 0.751 ± 0.011 | 0.698 ± 0.036 | 0.694 ± 0.044 | 0.645 ± 0.064 | 0.635 ± 0.064 | 0.641 ± 0.072 | 0.637 ± 0.075 | 0.654 ± 0.082 | 0.673 ± 0.093
100 µM, coculture fibroblast: H6076 | 0.672 ± 0.052 | 0.615 ± 0.048 | 0.61 ± 0.018 | 0.557 ± 0.016 | 0.535 ± 0.011 | 0.506 ± 0.008 | 0.513 ± 0.01 | 0.5126 ± 0.0048 | 0.5128 ± 0.0022
100 µM, coculture fibroblast: H6231 | 0.7682 ± 0.0019 | 0.6985 ± 0.0031 | 0.659 ± 0.037 | 0.617 ± 0.019 | 0.583 ± 0.021 | 0.544 ± 0.024 | 0.53 ± 0.038 | 0.512 ± 0.029 | 0.494 ± 0.016
100 µM, coculture fibroblast: HADF | 0.85 ± 0.081 | 0.859 ± 0.12 | 0.866 ± 0.17 | 0.7345 ± 0.0012 | 0.808 ± 0.09 | 0.75 ± 0.018 | 0.753 ± 0.065 | 0.743 ± 0.048 | 0.702 ± 0.054
100 µM, coculture fibroblast: HCFa | 0.773 ± 0.013 | 0.762 ± 0.009 | 0.748 ± 0.0034 | 0.7287 ± 0.0054 | 0.7244 ± 0.005 | 0.749 ± 0.013 | 0.692 ± 0.01 | 0.694 ± 0.013 | 0.647 ± 0.015
100 µM, coculture fibroblast: HCPF | 0.764 ± 0.011 | 0.639 ± 0.061 | 0.637 ± 0.039 | 0.581 ± 0.035 | 0.56 ± 0.038 | 0.527 ± 0.032 | 0.504 ± 0.031 | 0.489 ± 0.017 | 0.481 ± 0.019
100 µM, coculture fibroblast: HHSteC | 0.794 ± 0.024 | 0.7677 ± 0.0048 | 0.74044 ± 9.7e-05 | 0.7102 ± 0.007 | 0.7003 ± 0.0011 | 0.7195 ± 0.0038 | 0.6655 ± 0.0046 | 0.652 ± 0.0081 | 0.61 ± 0.0051
100 µM, coculture fibroblast: HMF | 0.7256 ± 0.0011 | 0.663 ± 0.02 | 0.646 ± 0.03 | 0.606 ± 0.037 | 0.593 ± 0.028 | 0.55 ± 0.023 | 0.5426 ± 0.0028 | 0.52 ± 0.0088 | 0.505 ± 0.013
100 µM, coculture fibroblast: HPFa | 0.8742 ± 0.0015 | 0.832 ± 0.017 | 0.806 ± 0.012 | 0.7789 ± 0.0048 | 0.782 ± 0.018 | 0.804 ± 0.025 | 0.735 ± 0.025 | 0.733 ± 0.028 | 0.685 ± 0.037
100 µM, coculture fibroblast: HUF | 0.834 ± 0.02 | 0.754 ± 0.044 | 0.748 ± 0.077 | 0.689 ± 0.085 | 0.657 ± 0.095 | 0.635 ± 0.11 | 0.619 ± 0.11 | 0.611 ± 0.11 | 0.61 ± 0.11
100 µM, coculture fibroblast: Hs5 | 0.7356 ± 0.0022 | 0.672 ± 0.02 | 0.671 ± 0.0071 | 0.6268 ± 0.0027 | 0.602 ± 0.01 | 0.56 ± 0.014 | 0.57 ± 0.022 | 0.543 ± 0.019 | 0.536 ± 0.021
100 µM, coculture fibroblast: Hs27A | 0.849 ± 0.049 | 0.785 ± 0.0099 | 0.769 ± 0.014 | 0.7587 ± 0.0066 | 0.757 ± 0.011 | 0.821 ± 0.0086 | 0.7466 ± 0.0052 | 0.748 ± 0.0085 | 0.6711 ± 0.0046
100 µM, coculture fibroblast: Hs343T | 0.704 ± 0.11 | 0.669 ± 0.14 | 0.656 ± 0.14 | 0.613 ± 0.16 | 0.595 ± 0.15 | 0.56 ± 0.12 | 0.528 ± 0.084 | 0.507 ± 0.07 | 0.492 ± 0.065
100 µM, coculture fibroblast: WS1 | 0.798 ± 0.023 | 0.698 ± 0.037 | 0.713 ± 0.026 | 0.66 ± 0.015 | 0.624 ± 0.022 | 0.613 ± 0.021 | 0.609 ± 0.029 | 0.587 ± 0.037 | 0.583 ± 0.045
